Measured values taken from patent US8530461B2 (Boehringer Ingelheim International GmbH, priority 2011, dated 2013).

Amino acid sequences for entries named in this document (tags omitted). Residues count along the entry.
UniProt O00763, 129-2458 limits assumed: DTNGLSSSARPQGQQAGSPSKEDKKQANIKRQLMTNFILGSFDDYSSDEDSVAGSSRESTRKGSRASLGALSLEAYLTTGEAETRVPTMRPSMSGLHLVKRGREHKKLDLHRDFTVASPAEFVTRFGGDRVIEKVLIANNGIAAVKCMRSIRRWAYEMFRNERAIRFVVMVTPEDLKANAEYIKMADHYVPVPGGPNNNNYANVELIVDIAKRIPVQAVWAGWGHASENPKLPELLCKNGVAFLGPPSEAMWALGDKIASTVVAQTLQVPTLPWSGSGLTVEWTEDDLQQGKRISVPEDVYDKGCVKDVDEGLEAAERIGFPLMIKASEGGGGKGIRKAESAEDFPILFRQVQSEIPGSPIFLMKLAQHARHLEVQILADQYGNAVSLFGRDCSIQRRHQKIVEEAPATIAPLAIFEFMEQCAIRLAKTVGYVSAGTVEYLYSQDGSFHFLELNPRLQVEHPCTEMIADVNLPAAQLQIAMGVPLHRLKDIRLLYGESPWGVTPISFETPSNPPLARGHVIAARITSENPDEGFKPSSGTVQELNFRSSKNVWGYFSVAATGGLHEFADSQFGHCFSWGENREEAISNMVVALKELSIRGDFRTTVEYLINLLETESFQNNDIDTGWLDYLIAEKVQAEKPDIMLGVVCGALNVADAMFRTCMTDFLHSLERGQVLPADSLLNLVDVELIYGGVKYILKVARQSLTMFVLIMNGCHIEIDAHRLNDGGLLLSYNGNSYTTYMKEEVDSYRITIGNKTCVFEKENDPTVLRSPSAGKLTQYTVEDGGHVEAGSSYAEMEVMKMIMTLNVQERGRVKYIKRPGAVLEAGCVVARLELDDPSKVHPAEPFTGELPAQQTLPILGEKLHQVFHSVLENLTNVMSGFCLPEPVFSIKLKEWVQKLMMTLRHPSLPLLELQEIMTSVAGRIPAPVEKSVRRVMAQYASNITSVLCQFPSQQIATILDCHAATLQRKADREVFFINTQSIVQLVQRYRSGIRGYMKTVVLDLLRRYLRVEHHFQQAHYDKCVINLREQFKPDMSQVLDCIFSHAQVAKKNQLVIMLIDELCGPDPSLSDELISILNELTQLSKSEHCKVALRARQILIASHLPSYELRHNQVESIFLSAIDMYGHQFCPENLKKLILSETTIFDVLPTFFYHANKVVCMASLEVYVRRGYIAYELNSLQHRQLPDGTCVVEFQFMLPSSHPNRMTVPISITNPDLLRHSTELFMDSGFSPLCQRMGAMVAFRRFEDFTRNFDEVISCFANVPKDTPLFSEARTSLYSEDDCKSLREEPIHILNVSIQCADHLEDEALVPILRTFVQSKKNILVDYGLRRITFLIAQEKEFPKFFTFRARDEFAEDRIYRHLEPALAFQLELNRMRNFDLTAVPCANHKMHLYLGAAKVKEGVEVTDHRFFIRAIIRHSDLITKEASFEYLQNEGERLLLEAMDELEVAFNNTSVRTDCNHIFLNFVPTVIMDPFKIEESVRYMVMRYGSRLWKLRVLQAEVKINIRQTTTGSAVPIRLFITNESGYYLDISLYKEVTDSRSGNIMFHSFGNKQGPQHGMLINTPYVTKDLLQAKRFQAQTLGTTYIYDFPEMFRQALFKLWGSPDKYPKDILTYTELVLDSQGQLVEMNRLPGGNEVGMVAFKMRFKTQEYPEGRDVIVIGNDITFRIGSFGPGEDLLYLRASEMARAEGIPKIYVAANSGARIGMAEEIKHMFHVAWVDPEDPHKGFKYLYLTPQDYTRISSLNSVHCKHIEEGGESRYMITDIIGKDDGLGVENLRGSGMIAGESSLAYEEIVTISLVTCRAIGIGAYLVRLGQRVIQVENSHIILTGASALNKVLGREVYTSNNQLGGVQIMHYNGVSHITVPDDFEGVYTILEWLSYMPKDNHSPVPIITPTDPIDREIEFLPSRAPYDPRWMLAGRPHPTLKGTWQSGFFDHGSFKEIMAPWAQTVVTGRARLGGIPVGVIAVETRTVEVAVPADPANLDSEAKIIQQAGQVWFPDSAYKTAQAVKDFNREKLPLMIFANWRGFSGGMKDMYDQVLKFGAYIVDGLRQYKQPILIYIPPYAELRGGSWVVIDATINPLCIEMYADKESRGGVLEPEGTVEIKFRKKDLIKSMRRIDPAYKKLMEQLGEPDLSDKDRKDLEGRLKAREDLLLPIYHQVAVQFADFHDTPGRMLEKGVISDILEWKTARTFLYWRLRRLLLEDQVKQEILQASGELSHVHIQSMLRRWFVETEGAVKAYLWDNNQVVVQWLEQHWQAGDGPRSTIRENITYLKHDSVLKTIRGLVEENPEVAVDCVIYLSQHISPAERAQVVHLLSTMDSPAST

target: human ACC2 (Homo sapiens, UniProt O00763); assay: ACC2 assay, spectrophotometric 384 well assay (NADH-linked, coupled lactate dehydrogenase/pyruvate kinase); conditions: human ACC2 construct lacking 128 N-terminal amino acids, 25° C., 340 nm, 15 minutes
Procedure: Spectrophotometric 384 Well Assay
Malonyl CoA formation by acetyl CoA carboxylases is stoichometrically linked to the consumption of ATP. ACC2 activity is measured in a NADH-linked kinetic method measuring ADP generated during the ACC reaction using a coupled lactate dehydrogenase/pyruvate kinase reaction.
For biological testing, a human ACC2 construct which lacks the 128 amino acids at the N-terminus for increased solubility (nt 385-6966 in Genbank entry AJ575592) is cloned. The protein is then expressed in insect cells using a baculoviral expression system. Protein purification is performed by anion exchange.
All compounds are dissolved in dimethyl sulfoxide (DMSO) to a concentration of 10 mM.
Assay reactions are then carried out in 384-well plates, with hACC2 in an appropriate dilution and at final assay concentrations (f.c.) of 100 mM Tris (pH 7.5), 10 mM trisodium citrate, 25 mM KHCO3, 10 mM MgCl2, 0.5 mg/ml BSA, 3.75 mM reduced L-glutathione, 15 U/ml lactate dehydrogenase, 0.5 mM phosphoenolpyruvate, 15 U/ml pyruvate kinase, compounds at different concentrations at final DMSO concentrations of 1%.
The enzymatic reaction is then started by addition of a mixture of NADH, acetyl Coenzyme A (both […].) and ATP (500 uM f.c.). The decrease of the optical density (slope S) is then determined at 25° C. at a wavelength of 340 nm over 15 minutes in a spectrophotometric reader.
Each assay microtiter plate contains wells with vehicle instead of compound as controls for the non-inhibited enzyme (100% CTL; ‘HIGH’) and wells without acetyl-CoA as controls for non-specific NADH degradation (0% CTL; ‘LOW’).
The slope S is used for calculation of % CTL=(S(compound)−S(‘LOW’))/(S(‘HIGH’)−S(‘LOW’))100. Compounds will give values between 100% CTL (no inhibition) and 0% CTL (complete inhibition).
For IC50 value determination, the sample slope in the presence of the test compound after subtraction of the low controls (S(compound)−S(‘LOW’)) are used.
An IC50 value is derived from the compound slopes at different dosages after subtraction of the low controls (S(compound)−S(‘LOW’)) by non-linear regression curve fitting (equation y=(A+((B−A)/(1+((C/x)^D))))).

SMILES	IC50
CCOc1ccc(OC2CN(c3ccc([C@H](C)NC(=O)c4ccoc4)cc3)C2)cc1	210 nM
CCOc1ccc(OC2CN(c3ccc([C@H](C)NC(=O)C4CCOC4)cc3)C2)cc1 (some centres unmarked)	1100 nM
CCOc1ccc(OC2CN(c3ccc([C@H](C)NC(=O)C4CC4)cc3)C2)cc1	170 nM
CC(=O)N[C@@H](C)c1ccc(N2CC(Oc3ccc(OCC4CC4)cc3)C2)cc1	40 nM
CCOc1ccc(OC2CN(c3ccc([C@H](C)NC(=O)c4cnoc4C)cc3)C2)cc1	180 nM

The structures given here were assigned with low confidence; some may be wrong.
